Laboratory results from article PMC6307817.
These are yes or no findings as the source states them, for the method shown. In cells and extracts the contact can be indirect. Some entries that bind do so weakly or less than the wild type. For some of these results: Tags and fused reporters may be left off the sequences shown. Values belong to the binder of their own block, whether it stands above or below them.

Assays:
Assay in all cases: co-IP; constructs co-expressed in HEK293T cells; lysis in 20mM Tris-HCl pH7.9, 150mM NaCl, 5mM EDTA, 1% NP-40, 5% glycerol; GFP-tagged protein precipitated with GFP-Trap (anti-GFP) beads, V5-tagged protein detected by anti-V5 blot
[1] = target: T1, TTBK2^Cterm-GFP (amino acids C-terminal to the kinase domain, 306-1243) (mouse) (UniProt Q3UVR3)
T1 sequence: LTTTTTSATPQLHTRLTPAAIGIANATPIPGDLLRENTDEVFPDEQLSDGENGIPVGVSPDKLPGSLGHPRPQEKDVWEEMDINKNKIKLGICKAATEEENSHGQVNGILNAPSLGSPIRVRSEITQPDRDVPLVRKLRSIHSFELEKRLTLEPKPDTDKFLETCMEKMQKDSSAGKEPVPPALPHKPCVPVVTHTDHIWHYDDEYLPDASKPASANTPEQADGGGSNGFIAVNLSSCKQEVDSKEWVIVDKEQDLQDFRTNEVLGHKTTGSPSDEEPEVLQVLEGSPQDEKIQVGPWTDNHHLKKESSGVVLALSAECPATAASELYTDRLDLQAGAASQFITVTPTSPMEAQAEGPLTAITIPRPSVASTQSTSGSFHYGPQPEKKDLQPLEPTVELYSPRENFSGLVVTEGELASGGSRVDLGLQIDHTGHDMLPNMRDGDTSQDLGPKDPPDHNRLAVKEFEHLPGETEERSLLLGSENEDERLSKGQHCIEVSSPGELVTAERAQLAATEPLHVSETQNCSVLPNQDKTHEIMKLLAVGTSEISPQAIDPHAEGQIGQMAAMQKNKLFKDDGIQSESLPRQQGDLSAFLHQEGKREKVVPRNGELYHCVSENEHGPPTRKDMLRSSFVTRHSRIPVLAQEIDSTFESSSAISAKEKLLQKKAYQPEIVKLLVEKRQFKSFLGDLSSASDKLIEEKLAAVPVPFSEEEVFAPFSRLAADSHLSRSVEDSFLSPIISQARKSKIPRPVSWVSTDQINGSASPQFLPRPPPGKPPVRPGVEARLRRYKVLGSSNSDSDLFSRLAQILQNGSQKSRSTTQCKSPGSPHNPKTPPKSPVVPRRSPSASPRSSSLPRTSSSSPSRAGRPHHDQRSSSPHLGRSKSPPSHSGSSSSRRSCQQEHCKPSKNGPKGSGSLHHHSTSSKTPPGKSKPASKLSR

[2] = target: full-length mouse Tau tubulin kinase 2 (TTBK2^FL) (mouse) (UniProt Q3UVR3)
[3] = target: T2, TTBK2^SCA11 (SCA11-associated truncation of TTBK2, amino acids 1-443) (mouse) (UniProt Q3UVR3)
T2 sequence: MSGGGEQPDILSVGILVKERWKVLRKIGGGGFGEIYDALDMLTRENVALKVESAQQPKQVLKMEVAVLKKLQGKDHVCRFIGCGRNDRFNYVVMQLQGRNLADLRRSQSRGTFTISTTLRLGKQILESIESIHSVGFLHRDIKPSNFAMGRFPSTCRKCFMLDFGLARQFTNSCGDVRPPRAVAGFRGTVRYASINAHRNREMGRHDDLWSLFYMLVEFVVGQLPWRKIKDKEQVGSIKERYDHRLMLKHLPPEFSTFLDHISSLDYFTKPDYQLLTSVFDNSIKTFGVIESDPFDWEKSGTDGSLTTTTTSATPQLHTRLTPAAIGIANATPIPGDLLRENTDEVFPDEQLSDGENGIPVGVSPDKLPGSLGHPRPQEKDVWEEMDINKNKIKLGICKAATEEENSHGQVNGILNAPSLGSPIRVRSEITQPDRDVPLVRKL

binding [1]: binds | binding [2]: binds | binding [3]: no binding
B1: full-length mouse Tau tubulin kinase 2 (TTBK2^FL) (protein, UniProt Q3UVR3 1-1243)
chain: MSGGGEQPDILSVGILVKERWKVLRKIGGGGFGEIYDALDMLTRENVALKVESAQQPKQVLKMEVAVLKKLQGKDHVCRFIGCGRNDRFNYVVMQLQGRNLADLRRSQSRGTFTISTTLRLGKQILESIESIHSVGFLHRDIKPSNFAMGRFPSTCRKCFMLDFGLARQFTNSCGDVRPPRAVAGFRGTVRYASINAHRNREMGRHDDLWSLFYMLVEFVVGQLPWRKIKDKEQVGSIKERYDHRLMLKHLPPEFSTFLDHISSLDYFTKPDYQLLTSVFDNSIKTFGVIESDPFDWEKSGTDGSLTTTTTSATPQLHTRLTPAAIGIANATPIPGDLLRENTDEVFPDEQLSDGENGIPVGVSPDKLPGSLGHPRPQEKDVWEEMDINKNKIKLGICKAATEEENSHGQVNGILNAPSLGSPIRVRSEITQPDRDVPLVRKLRSIHSFELEKRLTLEPKPDTDKFLETCMEKMQKDSSAGKEPVPPALPHKPCVPVVTHTDHIWHYDDEYLPDASKPASANTPEQADGGGSNGFIAVNLSSCKQEVDSKEWVIVDKEQDLQDFRTNEVLGHKTTGSPSDEEPEVLQVLEGSPQDEKIQVGPWTDNHHLKKESSGVVLALSAECPATAASELYTDRLDLQAGAASQFITVTPTSPMEAQAEGPLTAITIPRPSVASTQSTSGSFHYGPQPEKKDLQPLEPTVELYSPRENFSGLVVTEGELASGGSRVDLGLQIDHTGHDMLPNMRDGDTSQDLGPKDPPDHNRLAVKEFEHLPGETEERSLLLGSENEDERLSKGQHCIEVSSPGELVTAERAQLAATEPLHVSETQNCSVLPNQDKTHEIMKLLAVGTSEISPQAIDPHAEGQIGQMAAMQKNKLFKDDGIQSESLPRQQGDLSAFLHQEGKREKVVPRNGELYHCVSENEHGPPTRKDMLRSSFVTRHSRIPVLAQEIDSTFESSSAISAKEKLLQKKAYQPEIVKLLVEKRQFKSFLGDLSSASDKLIEEKLAAVPVPFSEEEVFAPFSRLAADSHLSRSVEDSFLSPIISQARKSKIPRPVSWVSTDQINGSASPQFLPRPPPGKPPVRPGVEARLRRYKVLGSSNSDSDLFSRLAQILQNGSQKSRSTTQCKSPGSPHNPKTPPKSPVVPRRSPSASPRSSSLPRTSSSSPSRAGRPHHDQRSSSPHLGRSKSPPSHSGSSSSRRSCQQEHCKPSKNGPKGSGSLHHHSTSSKTPPGKSKPASKLSR

binding [3]: no binding
B2: TTBK2^SCA11 (SCA11-associated truncation of TTBK2, amino acids 1-443) (domain or fragment, UniProt Q3UVR3 1-443)
chain: T2 sequence
